“Also recorded” adds a separate entry of the source. At least one compound was matched to its structure with a doubt left.
Test system: patients of the CATIE study (schizophrenia)
Assay: CATIE trial: change in PANSS score (delta PANSS, LOCF) for subjects stratified by GARP genetic signature status
Type: in vivo, human
Protocol: The CATIE study, a large federally funded clinical trial designed to assess the efficacy of antipsychotics in a real world setting, is a valuable resource for determining the role of genes in baseline psychopathology and drug response (Lieberman et al., 2005; Stroup et al., 2003). […] Additionally, whole genome SNP genotyping was performed for roughly half of the trial participants (Sullivan et al., 2008).
Genotype and phenotype data for the CATIE trial were recently made available to qualified researchers through the NIMH Center for Collaborative Genetic Studies on Mental Disorders. The sample consisted of a total of 738 patients. Further details on the patient population are described in the study by Sullivan and coworkers (Sullivan et al., 2008). The CATIE SNP genotype data evaluated included a total of 492,900 SNPs located throughout the genome.
The design of the CATIE study has been described in detail by others (Lieberman et al., 2005; Stroup et al., 2003). […] Subjects that failed Phase 1 treatment with the typical antipsychotic perphenazine were treated differently than those subjects that failed phase I treatment with an atypical antipsychotic. Instead of entering into Phase II of the trial, subjects who switched from perphenazine entered Phase IB. […] Subjects who failed Phase IB then entered Phase II.
A total of 738 subjects consented to provide DNA for genetic study. […] Only retrospective genetic analyses, judged to be exempt from human studies requirements by an IRB, were conducted in the current study. For the genetic analyses presented herein, the inventors combined and evaluated drug response data for Phase IA, Phase IB, and Phase II of the CATIE study. All tested patients were studied using well established clinical endpoints comparing baseline, intermediate, and last observation carried forward (LOCF) for the PANSS scores using CATIE data. LOCF analysis is a commonly used clinical endpoint for clinical trials for neuropsychiatric drugs, with particular changes in PANSS scores being used to indicate clinically significant response (Leucht et al., 2009).
Using the clinical data from the CATIE trial, the inventors derived several different metrics used for quantifying response in clinical trials of antipsychotic medications. The most commonly used psychometric instrument is the Positive and Negative Syndrome Scale (PANSS), a 30-item semi-quantitative instrument scored by clinical professionals (Kay et al., 1987). […]
As mentioned previously, the mean change in PANSS at LOCF provides an important measure of efficacy in patients undergoing antipsychotic treatments. […] Therefore, the inventors determined the impact of segmentation by GARP genetic signature status on the quantitative measure of clinical improvement—delta PANSS (for LOCF). […]

CN1CCN(C2=Nc3cc(Cl)ccc3Nc3ccccc32)CC1 [Clozapine, clozapine]
response in GARP-1 positive subjects, in words (GARP-1 positive subjects, compared with GARP-1 negative subjects or with other drugs): significant efficacy | response in GARP-2 positive subjects, in words (GARP-2 positive subjects, compared with GARP-2 negative subjects or with other drugs): decreased response; also recorded: responded poorly; also recorded: superior efficacy; also recorded: lower response | response in GARP-3 positive subjects, in words (GARP-3 positive subjects, compared with GARP-3 negative subjects or with other drugs): clear efficacy advantage | response in GARP-4 positive subjects, in words (GARP-4 positive subjects, compared with GARP-4 negative subjects or with other drugs): numerically better response; also recorded: clear efficacy advantage

From US20160273042A1, “GENETIC MARKERS OF ANTIPSYCHOTIC RESPONSE” (SUREGENE, LLC, priority 2013, published 2016)
